From paper doi:10.1101/181503 come the findings set out here.

The target of the assay is FLAG-ATGL (adipose triglyceride lipase) (not stated (human or mouse cDNA cloned)). Nature of the assay: co-IP.

Results are given in words; binding and its absence hold for the method and conditions named. In cells and extracts the contact can be indirect. Binding calls can cover weak binding; strength is not graded here.

B1: hypoxia-inducible gene 2 (HIG2), endogenous (protein, UniProt Q9Y5L2 1-63)
chain: MKHVLNLYLLGVVLTLLSIFVRVMESLEGLLESPSPGTSWTTRSQLANTEPTKGLPDHPSRSM
On to B1, for which the binding entry is “binds”.
